Laboratory results taken from US20190263918A1.
No constants are given. Whether binding was seen depends on the method and setting. Some binding calls cover weakened binding; strength is not graded here.

Amino acid sequences for entries named in this document (tags omitted). Residues count along the entry.
UniProt P27512, residues 24-193: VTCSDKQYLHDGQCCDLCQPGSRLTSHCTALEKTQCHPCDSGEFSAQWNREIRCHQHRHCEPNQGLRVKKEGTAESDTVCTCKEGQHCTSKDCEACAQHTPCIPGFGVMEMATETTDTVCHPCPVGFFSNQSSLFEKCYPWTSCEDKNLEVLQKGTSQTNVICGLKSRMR

What was measured:
[1] = target: recombinant murine CD40 protein (murine) (UniProt P27512); assay: ELISA (FIG. 3A), coated mouse CD40
[2] = target: recombinant murine CD40 protein (murine) (UniProt P27512); assay: ELISA, plate coated with recombinant murine CD40
[3] = target: recombinant murine CD40 protein (murine) (UniProt P27512); assay: ELISA: plate coated with recombinant murine CD40, antibody in gradient dilutions, HRP-labelled goat anti-human IgG-Fc secondary antibody, A650

Measured: binding

B1: Anti-mCD40-hIgG2-NA (antibody)
heavy: EVQLVESDGGLVQPGRSLKLPCAASGFTFSDYYMAWVRQAPTKGLEWVASISYDGSSTYYRDSVKGRFTISRDNAKSTLYLQMDSLRSEDTATYYCGRHSSYFDYWGQGVMVTVSSASTKGPSVFPLAPCSRSTSESTAALGCLVKDYFPEPVTVSWNSGALTSGVHTFPAVLQSSGLYSLSSVVTVPSSNFGTQTYTCNVDHKPSNTKVDKTVERKCCVECPPCPAPPVAGPSVFLFPPKPKDTLMISRTPEVTCVVVDVSHEDPEVQFNWYVDGVEVHNAKTKPREEQFASTFRVVSVLTVVHQDWLNGKEYKCKVSNKGLPAPIEKTISKTKGQPREPQVYTLPPSREEMTKNQVSLTCLVKGFYPSDIAVEWESNGQPENNYKTTPPMLDSDGSFFLYSKLTVDKSRWQQGNVFSCSVMHEALHNHYTQKSLSLSPGK
light: DTVLTQSPALAVSPGERVTISCRASDSVSTLMHWYQQKPGQQPKLLIYLASHLESGVPARFSGSGSGTDFTLTIDPVEADDTATYYCQQSWNDPWTFGGGTKLELKRTVAAPSVFIFPPSDEQLKSGTASVVCLLNNFYPREAKVQWKVDNALQSGNSQESVTEQDSKDSTYSLSSTLTLSKADYEKHKVYACEVTHQGLSSPVTKSFNRGEC
binds: all assays above
